{
  "source": "PubChem BioAssay (NCATS)",
  "note": "The shares of active, inactive and inconclusive entries below differ from those in the screen. Potencies beside an inconclusive call are fits to weak or partial responses and may not hold up. Active and inactive are the calls of the source. Calls come from the whole dose curve; as a rule, active = well fitted activation curve with a large enough effect; inconclusive = small, poorly fitted or top-dose-only effect, or another doubt; inactive = no such curve, though single readings can be large or run the other way.",
  "data": [
    {"biological_target": "Rap guanine nucleotide exchange factor 3 (Homo sapiens) (UniProt O95398)", "assay": "Counterscreen qHTS for agonist of cAMP-regulated guanine nucleotide exchange factor 3 (EPAC1) (AID 1645889); note: nearly all actives have a fitted effect of over 40% in size; note: potency is the fitted concentration of half-maximal effect; for activation: % of control where 0% means no effect", "settings": "EPAC1 Rap1B-BODIPY-GDP exchange, fluorescence; activation: at 154 µM (top of the series) unless noted", "outline": "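Rap1B-BODIPY-GDP 250 nM + GDP 50 uM; cpds 7-pt, final 9.74 nM–152 uM (activator mode) or from 7.32 nM upwards (inhibitor mode); RT; FI 480/540 nm at 5 and 30 min, then ± cAMP, reread.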", "values": [
      {"molecule": "COc1ccc(C(CC(=O)c2ccc(C)cc2)C(C#N)C#N)cc1OC", "note": "(stereo not given)", "Potency": "inconclusive: 11.2 µM [activator, full curve]"},
      {"molecule": "O=C(/C=C/c1ccc(Br)o1)NCc1ccccc1", "activation": "inactive: 21.3% [at 30.8 µM]"},
      {"molecule": "C/C(=N\\NC(=O)c1cc2ccccc2cc1O)c1ccc(C)o1", "activation": "inactive: 28.4% [at 30.8 µM]"},
      {"molecule": "COc1cccc(/C=N/NC(=O)c2cc3cc([N+](=O)[O-])ccc3s2)c1O", "activation": "inactive: 26.8% [at 30.8 µM]"},
      {"molecule": "O=C(CSc1nc2ccsc2c(=O)n1NC(=O)c1ccccc1)Nc1nccs1", "Potency": "inactive"},
      {"molecule": "Fc1ccc(-c2nc3ccc(Br)cn3c2Cc2cccc(F)c2)cc1", "Potency": "inactive"},
      {"molecule": "Cc1ccc(C(=O)NN2C(=O)/C(=C/c3cn(C)c4ccccc34)SC2=S)cc1", "activation": "inconclusive: 24.1% [activator]"},
      {"molecule": "COc1cc(Cl)c(C)cc1NC(=O)CSc1cc(Cl)ccc1Cl", "Potency": "inconclusive: 0.794 µM [activator, full curve, poor fit]"},
      {"molecule": "O=C(O)c1sccc1SCc1ccc(Cl)c(Cl)c1", "Potency": "inactive"},
      {"molecule": "O=C1C(c2ccccc2)=[N+]([O-])c2ccccc21", "Potency": "inconclusive: 44.7 µM [activator, partial curve, poor fit]"},
      {"molecule": "CS/C(=C\\C(=O)c1ccco1)Nc1ccccc1Cl", "Potency": "inconclusive: 39.8 µM [activator, partial curve, poor fit]"},
      {"molecule": "COc1cc(-c2cc(OC)c3c(C)oc(C)c3c(=O)c2)ccc1OC(=O)c1ccccc1F", "Potency": "inconclusive: 8.91 µM [activator, partial curve]"},
      {"molecule": "COc1cccc(S(=O)(=O)Nc2ccc3c(c2)[C@@H]2C[C@@H](CC(=O)NCc4ccc(Cl)cc4)O[C@@H](CO)[C@@H]2O3)c1", "Potency": "inactive"},
      {"molecule": "COc1ccc(C(=O)Nc2ccc(-c3cc4ccccc4oc3=O)c(C)c2)cc1OC", "activation": "inconclusive: 58.3% [activator]"},
      {"molecule": "O=C1NC(=Nc2ccccc2)S/C1=C\\C=C\\c1ccco1", "activation": "inconclusive: 38.1% [activator]"},
      {"molecule": "Cc1ccc2nc(-c3ccccc3)c(Cc3ccccc3C(F)(F)F)n2c1", "Potency": "inactive"},
      {"molecule": "CCCCn1c(COc2cccc(OC)c2)nc2ccccc21", "Potency": "inconclusive: 15.8 µM [activator, full curve]"},
      {"molecule": "COc1ccc(CCNC(=O)CS(=O)(=O)Cc2nc(-c3ccc(C)cc3)oc2C)cc1OC", "activation": "inconclusive: 42.3% [activator] [at 30.8 µM]"},
      {"molecule": "Cc1cccc(N2CC(C(=O)Nc3nnc(SCC(=O)NCC4CCCO4)s3)CC2=O)c1", "note": "(stereo not given)", "Potency": "inactive"},
      {"molecule": "COc1cc(C2CC(=O)Oc3cc(C)c(Br)c(C)c32)cc(OC)c1OC", "note": "(stereo not given)", "Potency": "inconclusive: 14.1 µM [activator, partial curve, poor fit]"},
      {"molecule": "O=C(NNc1cc(N2CCOCC2)nc(N2CCOCC2)n1)c1ccc([N+](=O)[O-])cc1", "Potency": "inactive"},
      {"molecule": "COc1ccccc1C(=O)Nc1ccccc1C(=O)OCc1cc(=O)n2c(C)csc2n1", "Potency": "inconclusive: 0.501 µM [activator, full curve, poor fit]"},
      {"molecule": "CCOc1ccccc1NC(=O)C1CCN(c2nc(-c3ccc(OC)cc3)no2)CC1", "activation": "inconclusive: 46.2% [activator] [at 30.8 µM]"},
      {"molecule": "O=C1C(=O)c2cccnc2-c2ncccc21", "Potency": "inconclusive: 3.16 µM [activator, full curve, poor fit]"},
      {"molecule": "CCOC(=O)c1ccc(NC(=S)NNC(=O)C2(C)CC2(Cl)Cl)cc1", "note": "(stereo not given)", "Potency": "inconclusive: 6.31 µM [activator, partial curve, poor fit]"},
      {"molecule": "Cc1ccc(C2c3c(-c4cc(C)ccc4O)n[nH]c3C(=O)N2Cc2ccco2)cc1", "note": "(stereo not given)", "Potency": "inconclusive: 11.2 µM [activator, single point]"},
      {"molecule": "Cc1cccc(Cn2c(=O)oc3ccc(C)cc32)c1", "activation": "inactive: 19.6% [at 30.8 µM]"},
      {"molecule": "C[C@H](CO)N1C[C@H](C)[C@H](CN(C)Cc2cccc(O)c2)OCc2ccccc2-c2c(n(C)c3ccccc23)C1=O", "Potency": "inconclusive: 14.1 µM [activator, partial curve, poor fit]"},
      {"molecule": "CCCc1nc2ccc(C(=O)OC)cn2c1Cc1ccc(C)cc1", "Potency": "inconclusive: 0.0251 µM [activator, full curve, poor fit]"},
      {"molecule": "CN(C)c1ccccc1-c1cc(NC=O)c2ncc(-c3cccc(C(F)(F)F)c3)n2c1", "Potency": "inactive"},
      {"molecule": "Cc1cc(C)c(NC(=O)Cn2c(=O)n(Cc3ccc(C(=O)NCc4ccco4)cc3)c(=O)c3sccc32)c(C)c1", "Potency": "inconclusive: 50.1 µM [activator, partial curve]"},
      {"molecule": "Cc1ccc2c(c1)OC(=O)CC2c1ccccc1", "note": "(stereo not given)", "activation": "inconclusive: 40.6% [activator]"},
      {"molecule": "COCc1nc2ccccc2n1Cc1ccc(C(C)(C)C)cc1", "Potency": "inactive"},
      {"molecule": "COc1ccccc1C1CC(=O)Oc2cc(C)c(Br)c(C)c21", "note": "(stereo not given)", "Potency": "inconclusive: 31.6 µM [activator, partial curve, poor fit]"},
      {"molecule": "Cc1ccc(S(=O)(=O)NC(=O)Cn2nnc(-c3ccccc3)c2COc2ccc3ccccc3c2)cc1", "Potency": "inconclusive: 12.6 µM [activator, partial curve, poor fit]"},
      {"molecule": "Cc1noc(C)c1S(=O)(=O)Nc1ccc2c(c1)C(=O)N([C@@H](C)CO)C[C@@H](C)[C@@H](CN(C)CC1CCCCC1)OCCCC[C@@H](C)O2", "Potency": "inactive"},
      {"molecule": "O=C(NCc1ccccc1)C(c1ccccc1)n1c(=O)c(-c2ccco2)nc2ccccc21", "note": "(stereo not given)", "Potency": "inconclusive: 2 µM [activator, full curve, poor fit]"},
      {"molecule": "CC(C)C(=O)Nc1nc2c(s1)CC(C(C)(C)C)CC2", "note": "(stereo not given)", "Potency": "inactive"},
      {"molecule": "Clc1cccc(Cl)c1C1Nc2cccc3cccc(c23)N1", "Potency": "inconclusive: 11.2 µM [activator, partial curve, poor fit]"},
      {"molecule": "CCc1nc2c(OCc3ccc(C(F)(F)F)cc3)cccn2c1N(C)C(=O)C(C)C", "activation": "inconclusive: 22% [activator] [at 30.8 µM]"}
    ]}
  ]
}
